In article PMC3103587:
These are yes or no findings as the source states them, for the method shown. For some assays here: Binding seen in cells or lysates may run through a third protein. Some entries that bind do so weakly or less than the wild type. For some assays here: Tags and fused reporters may be left off the sequences shown.

Chains of the proteins cited; added tags and fusions are not shown.
UniProt O35303: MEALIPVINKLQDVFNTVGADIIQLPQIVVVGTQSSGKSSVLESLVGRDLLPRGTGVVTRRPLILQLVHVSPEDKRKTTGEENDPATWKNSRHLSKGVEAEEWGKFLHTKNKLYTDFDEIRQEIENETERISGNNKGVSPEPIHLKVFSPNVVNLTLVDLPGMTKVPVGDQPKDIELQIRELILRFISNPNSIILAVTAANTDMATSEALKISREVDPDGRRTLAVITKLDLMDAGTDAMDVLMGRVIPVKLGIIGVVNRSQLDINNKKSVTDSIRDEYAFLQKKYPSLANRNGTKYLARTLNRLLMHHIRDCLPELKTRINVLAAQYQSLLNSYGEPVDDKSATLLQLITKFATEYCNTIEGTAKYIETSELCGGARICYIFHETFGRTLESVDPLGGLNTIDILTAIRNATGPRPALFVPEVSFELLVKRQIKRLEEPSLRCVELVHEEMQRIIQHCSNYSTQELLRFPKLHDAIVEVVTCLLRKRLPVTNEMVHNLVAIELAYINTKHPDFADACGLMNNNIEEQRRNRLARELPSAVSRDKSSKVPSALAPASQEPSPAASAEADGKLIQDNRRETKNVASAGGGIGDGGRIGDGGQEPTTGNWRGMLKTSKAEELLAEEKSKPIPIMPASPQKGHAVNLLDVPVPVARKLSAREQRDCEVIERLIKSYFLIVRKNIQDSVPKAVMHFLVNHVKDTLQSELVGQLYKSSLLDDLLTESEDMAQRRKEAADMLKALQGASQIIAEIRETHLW

What was measured:
[1] = molecular target: T1, YFP-N-Myc-Mfn2 (UniProt O95140); test: split reporter; BiFC with YFP[1–158] and YFP[159–238] fragments in co-transfected cells (BHK-21 for Mfn2/DLP1)
T1 sequence: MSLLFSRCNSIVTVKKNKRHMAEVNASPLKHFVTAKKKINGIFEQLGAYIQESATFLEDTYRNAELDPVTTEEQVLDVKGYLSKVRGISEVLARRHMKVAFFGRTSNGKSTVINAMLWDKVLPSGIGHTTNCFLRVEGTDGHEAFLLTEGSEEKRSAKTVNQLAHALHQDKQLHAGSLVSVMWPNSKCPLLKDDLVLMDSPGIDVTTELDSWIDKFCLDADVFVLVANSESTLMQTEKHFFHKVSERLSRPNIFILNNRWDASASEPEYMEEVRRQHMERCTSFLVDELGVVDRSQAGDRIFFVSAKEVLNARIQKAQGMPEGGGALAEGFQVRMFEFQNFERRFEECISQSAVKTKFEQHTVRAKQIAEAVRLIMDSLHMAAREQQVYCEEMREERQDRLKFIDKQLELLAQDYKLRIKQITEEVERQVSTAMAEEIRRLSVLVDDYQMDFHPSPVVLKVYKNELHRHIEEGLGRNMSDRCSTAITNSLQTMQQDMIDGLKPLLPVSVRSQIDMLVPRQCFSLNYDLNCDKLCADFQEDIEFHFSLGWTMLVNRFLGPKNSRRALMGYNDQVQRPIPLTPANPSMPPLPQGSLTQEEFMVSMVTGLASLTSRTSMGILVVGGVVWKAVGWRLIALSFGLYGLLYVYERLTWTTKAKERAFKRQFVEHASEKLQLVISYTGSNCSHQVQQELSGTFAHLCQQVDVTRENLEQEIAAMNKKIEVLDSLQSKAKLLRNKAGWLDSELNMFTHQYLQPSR

[2] = molecular target: dynamin-like protein DLP1/Drp1, full-length (two-hybrid construct) (UniProt O35303); test: two-hybrid; semi-quantitative: Matchmaker Two-Hybrid System 3, yeast AH109; ratio of colony numbers on SD/-Leu/-Trp/-His and SD/-Leu/-Trp plates (HIS3 activity)

| binding [1] | binding [2] | Substance |
| --- | --- | --- |
| binds | – | YFP-C-HA-DLP1 (from UniProt O35303 1-755) |
| – | binds | dynamin-like protein DLP1/Drp1, full-length (two-hybrid construct) (from UniProt O35303 1-755) |
